Source: publication PMC5972149
Results are given in words; binding and its absence hold for the method and conditions named. Binding seen in cells or lysates may run through a third protein. Some entries that bind do so weakly or less than the wild type.

Chains of the proteins cited; added tags and fusions are not shown.
UniProt P23769: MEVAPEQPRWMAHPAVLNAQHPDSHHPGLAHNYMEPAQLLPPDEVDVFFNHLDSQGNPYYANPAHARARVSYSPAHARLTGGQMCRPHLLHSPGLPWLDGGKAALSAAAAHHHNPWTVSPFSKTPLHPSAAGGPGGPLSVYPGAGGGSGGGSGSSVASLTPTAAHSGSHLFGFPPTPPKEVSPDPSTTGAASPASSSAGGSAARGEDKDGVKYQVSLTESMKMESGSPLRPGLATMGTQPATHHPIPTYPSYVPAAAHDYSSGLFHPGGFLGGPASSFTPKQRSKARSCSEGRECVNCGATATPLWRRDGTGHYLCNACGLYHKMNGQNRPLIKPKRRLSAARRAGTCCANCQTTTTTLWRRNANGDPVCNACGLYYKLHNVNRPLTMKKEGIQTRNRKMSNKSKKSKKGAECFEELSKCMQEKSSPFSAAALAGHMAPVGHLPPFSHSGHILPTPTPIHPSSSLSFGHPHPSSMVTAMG
UniProt Q9H792: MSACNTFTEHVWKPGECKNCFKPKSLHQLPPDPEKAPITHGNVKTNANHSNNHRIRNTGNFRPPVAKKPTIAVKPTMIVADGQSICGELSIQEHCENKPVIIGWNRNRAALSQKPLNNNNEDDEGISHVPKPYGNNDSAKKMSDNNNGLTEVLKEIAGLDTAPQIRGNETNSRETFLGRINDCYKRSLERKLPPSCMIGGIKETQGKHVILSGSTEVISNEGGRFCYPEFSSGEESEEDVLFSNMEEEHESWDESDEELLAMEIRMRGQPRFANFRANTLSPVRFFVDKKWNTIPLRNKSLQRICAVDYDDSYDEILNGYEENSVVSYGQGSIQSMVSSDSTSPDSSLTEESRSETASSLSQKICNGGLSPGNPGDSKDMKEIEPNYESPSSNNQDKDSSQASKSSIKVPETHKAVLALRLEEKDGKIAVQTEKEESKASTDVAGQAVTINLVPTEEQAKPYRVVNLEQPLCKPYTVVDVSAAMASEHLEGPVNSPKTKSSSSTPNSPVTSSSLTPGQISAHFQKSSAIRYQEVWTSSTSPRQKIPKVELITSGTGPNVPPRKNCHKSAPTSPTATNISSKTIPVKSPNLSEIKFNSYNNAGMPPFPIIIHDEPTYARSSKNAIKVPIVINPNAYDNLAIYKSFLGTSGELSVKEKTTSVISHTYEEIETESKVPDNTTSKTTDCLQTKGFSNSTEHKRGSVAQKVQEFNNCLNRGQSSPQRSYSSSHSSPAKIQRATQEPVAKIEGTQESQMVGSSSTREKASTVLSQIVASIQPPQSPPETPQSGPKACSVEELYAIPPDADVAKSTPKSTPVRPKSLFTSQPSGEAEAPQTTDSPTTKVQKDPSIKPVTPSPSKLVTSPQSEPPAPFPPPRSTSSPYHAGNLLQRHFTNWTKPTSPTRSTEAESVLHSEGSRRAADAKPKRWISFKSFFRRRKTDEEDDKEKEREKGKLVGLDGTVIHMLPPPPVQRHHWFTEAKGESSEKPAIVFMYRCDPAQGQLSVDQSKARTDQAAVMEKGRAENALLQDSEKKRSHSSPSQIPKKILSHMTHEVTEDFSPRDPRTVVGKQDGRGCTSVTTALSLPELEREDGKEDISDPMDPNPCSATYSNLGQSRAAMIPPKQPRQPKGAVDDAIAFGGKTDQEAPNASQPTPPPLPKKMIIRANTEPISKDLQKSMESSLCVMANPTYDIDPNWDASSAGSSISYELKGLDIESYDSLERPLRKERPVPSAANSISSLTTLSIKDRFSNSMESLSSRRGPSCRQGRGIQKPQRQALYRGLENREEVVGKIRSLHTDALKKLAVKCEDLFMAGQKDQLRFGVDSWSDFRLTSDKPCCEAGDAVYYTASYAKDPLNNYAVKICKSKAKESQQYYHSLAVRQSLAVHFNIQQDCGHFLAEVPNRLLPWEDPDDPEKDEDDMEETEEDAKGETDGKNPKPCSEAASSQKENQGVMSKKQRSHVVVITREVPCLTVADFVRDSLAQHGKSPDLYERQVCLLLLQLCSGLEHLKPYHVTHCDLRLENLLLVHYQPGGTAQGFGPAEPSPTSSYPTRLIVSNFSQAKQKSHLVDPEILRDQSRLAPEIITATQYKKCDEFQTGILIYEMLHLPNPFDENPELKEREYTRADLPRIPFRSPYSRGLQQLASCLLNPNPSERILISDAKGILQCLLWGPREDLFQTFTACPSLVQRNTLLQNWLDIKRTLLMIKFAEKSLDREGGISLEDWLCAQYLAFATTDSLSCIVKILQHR

Molecular target: GATA-binding protein 2 (human (endogenous in HUVEC)) (UniProt P23769)
Test: co-IP; HUVEC lysates (50 mM HEPES pH 7.4, 150 mM NaCl, 1% Triton X-100, 1% sodium deoxycholate, 0.1% SDS, 10% glycerol) diluted 1:1 with HNTG buffer; precipitated with mouse anti-GATA2 agarose or normal mouse IgG agarose; western blot; cells on collagen I, fibronectin or uncoated plastic dishes

Substance: Pseudopodium-enriched atypical tyrosine kinase 1 (from UniProt Q9H792 1-1746)
- binding: binds
